Literature values in article PMC10820479, “An Improved In Vitro Blood-Brain Barrier Model for the Evaluation of Drug Permeability Using Transwell with Shear Stress” (Pharmaceutics, 2023).

Details: monkey; unbound plasma-CSF partition coefficient; cited from earlier work

SMILES: CC(C)NCC(O)COc1ccc(CC(N)=O)cc1 (stereo not shown) [Atenolol, atenolol]
- Kp,uu,CSF: 0.331 (monkey) ^3
